Measured values as given in PubChem BioAssay (NCATS).
Inconclusive results, whose numbers are uncertain, are shown with a selection of clear calls. Potencies of inconclusive entries are doubtful fits and often do not repeat. Active and inactive are the calls of the source. Calls come from the whole dose curve; as a rule, active = well fitted cell-killing curve with a large enough effect; inconclusive = small, poorly fitted or top-dose-only effect, or effect the other way; inactive = no such curve, though single readings can be large or run the other way. Where a SMILES comes first, the peptide text is derived from it. [ ]: non-standard residue; d: D form. The star is where a group is joined. Sta = CC(C)C[C@H](N)[C@@H](O)CC(=O)O; Isovaleryl = CC(C)CC(=O)*

Test: Quantitative High-Throughput drug screen in 47 multiple myeloma cell lines against the NCATS MIPE library collection: INA6_PLB cell viability assay (AID 1918965; note: nearly all actives have a fitted effect of over 55% in size)
Settings: INA6 myeloma viability, CellTiter-Glo ATP luminescence, 48 h; viability (% of control): at 45.8 µM (top of the series)
Excerpt: PI: Beverly A. Mock Ph.D.
Laboratory of Cancer Biology and Genetics,
Center for Cancer Research, National Cancer Institute,
National Institute of Health, Bethesda, Maryland
Drug resistance and disease progression are common in multiple myeloma (MM) patients, underscoring the need for new therapeutic combinations. […] We hypothesized that effective combinations would reduce MYC expression and enhance p16 activity. […] These preclinical data identify potentially useful drug combinations for evaluation in drug-resistant MM and reveal potential mechanisms of combined drug sensitivity.
Described herein is the primary MIPE qHTS used to cherrypick compounds. Validated compounds were then further tested for potential synergistic activiy.
[1] Peat TJ, Gaikwad SM, Dubois W, Gyabaah-Kessie N, Zhang S, Gorjifard S, Phyo Z, Andres M, Hughitt VK, Simpson RM, Miller MA, Girvin AT, Taylor A, Williams D, D'Antonio N, Zhang Y, Rajagopalan A, Flietner E, Wilson K, Zhang X, Shinn P, Klumpp-Thomas C, McKnight C, Itkin Z, Chen L, Kazandijian D, Zhang J, Michalowski AM, Simmons JK, Keats J, Thomas CJ, Mock BA. Drug combinations identified by high-throughput screening promote cell cycle transition and upregulate Smad pathways in myeloma. Cancer Lett. 2023 Aug 1;568:216284. doi: 10.1016/j.canlet.2023.216284. Epub 2023 Jun 24. PMID: 37356470; PMCID: PMC10408729.
SEQUENCE No. (e.g., 1, 2, 3, etc.); […] (e.g., Cells, Incubation, Reagent, etc.); VALUE and DESCRIPTION.
1; Cells; 5 uL; white, solid bottom 1536-well Greiner assay plate.
2; Compounds; 23 nL; Kalypsis pin tool (Wako USA) equipped with a 1536-well pin head to transfer to the assay plates.
3; Incubation; 48 hours; 37C incubation.
4; Reagent;5uL; CellTiter Glo (Promega).
5; Detector; 425V; Luminescence; Viewlux PerkinElmer.
NOTES (numbers refer to Sequence numbers above)
1. The cell-based screening methods employed in this study were like those previously published. Briefly, the corresponding myeloma cell lines were screened in 1,536-well plates with 500 cells, 5-uL per well for inhibition of cell viability (assessed by measuring ATP levels with CellTiterGlo).
2. NCATS MIPE 4.0 library of approved and investigational drugs were added using the Kalypsis pin tool. Wells treated with DMSO only for 100% viability and media only wells for 0% viability were used as controls.
3. The assay plates were covered and incubated for 48 hours in a 37C, 5% CO2 incubator with controlled humidity.
4. After 48 hours, CellTilter-GloTM luminescent substrate mix (Promega) reagent was added to the assay plate and plates we incubated for 5 min at room temperature.
5. Signal was measured as median relative luminescence units on a ViewLux (PerkinElmer) multiplate reader.
[1] Heske CM, Davis MI, Baumgart JT, Wilson K, Gormally MV, Chen L, Zhang X, Ceribelli M, Duveau DY, Guha R, Ferrer M, Arnaldez FI, Ji J, Tran HL, Zhang Y, Mendoza A, Helman LJ, Thomas CJ. Matrix Screen Identifies Synergistic Combination of PARP Inhibitors and Nicotinamide Phosphoribosyltransferase (NAMPT) Inhibitors in Ewing Sarcoma. Clin Cancer Res. 2017 Dec 1;23(23):7301-7311. doi: 10.1158/1078-0432.CCR-17-1121. Epub 2017 Sep 12. PMID: 28899971; PMCID: PMC6636827.
Potency is the fitted concentration of half-maximal effect.

SMILES	Potency	viability (% of control)
CC(C)(C)[N+]([O-])=Cc1ccc(S(=O)(=O)O)cc1S(=O)(=O)O	inconclusive: 2.35 µM [cytotoxic, partial curve, poor fit]	
CCC1=C(C)CN(C(=O)NCCc2ccc(S(=O)(=O)NC(=O)NC3CCC(C)CC3)cc2)C1=O (stereo not given)	inactive	
CC(S)C(=O)NCC(=O)O (stereo not given)	inconclusive: 20.9 µM [cytotoxic, single point]	
NCCS(=O)(=O)O	inconclusive: 16.6 µM [cytotoxic, partial curve, poor fit]	
O=c1c(O)c(-c2cc(O)c(O)c(O)c2)oc2cc(O)cc(O)c12	inconclusive: 33.2 µM [cytotoxic, single point]	
N=C1SC(=Cc2ccc(-c3ccc4c(c3)C(=O)NC4=O)o2)C(=O)N1c1ccc(Br)cc1	inconclusive: 16.6 µM [cytotoxic, partial curve, poor fit]	
O=c1oc2c(O)c(O)cc3c(=O)oc4c(O)c(O)cc1c4c23	inactive	
Nc1cc(C(Cl)=C(Cl)Cl)c(S(N)(=O)=O)cc1S(N)(=O)=O	inactive	
CCOC(=O)N[C@@H]1CC[C@@H]2[C@@H](C1)C[C@H]1C(=O)O[C@H](C)[C@H]1[C@@H]2C=Cc1ccc(-c2cccc(F)c2)cn1	inconclusive: 37.2 µM [cytotoxic, single point]	
O=C1Nc2ccc(Cl)cc2C(C#CC2CC2)(C(F)(F)F)O1 (stereo not given)	active: 20.9 µM	
NCCc1cnc[nH]1	inactive	
O=C(c1cncc(Br)c1)N1CCC(N2CCCC2)CC1	inconclusive: 0.59 µM [cytotoxic, full curve, poor fit]	
CCCNC(=O)Nc1ccc(Oc2ncnc3cc(OC)c(OC)cc23)cc1Cl	inactive	
NC(=O)c1ncn([C@@H]2O[C@H](CO)[C@@H](O)[C@@H]2O)c1N	inconclusive: 0.0662 µM [cytotoxic, full curve, poor fit]	
CCOC(=O)c1ccc(OC(=O)CCCCCN=C(N)N)cc1	inactive	
COc1cc2nccc(Oc3ccc(NC(=O)Nc4ccc(F)cc4F)c(F)c3)c2cc1OC	inconclusive: 1.66 µM [cytotoxic, full curve, poor fit]	
c1cnc2cc3c(cc2n1)C1CNCC3C1	inactive	
CC1(C)C(=O)N(CCN2CCC(C(=O)c3ccc(F)cc3)CC2)c2ccccc21	active: 1.66 µM	
COc1ccc(Cc2ccc(NC(N)=O)cc2)cc1-c1cccc(Cl)c1		inconclusive: 132% [cytotoxic]
NS(=O)(=O)c1cc2c(cc1Cl)NCNS2(=O)=O	inactive	

At a glance, part of the list above.
SMILES	Potency	viability (% of control)
NCCc1cnc[nH]1	inactive	
O=C(c1cncc(Br)c1)N1CCC(N2CCCC2)CC1	inconclusive: 0.59 µM [cytotoxic, full curve, poor fit]	

(next part)

SMILES	Potency	viability (% of control)
Cc1nnc(C(C)C)n1C1C[C@H]2CC[C@@H](C1)N2CC[C@H](NC(=O)C1CCC(F)(F)CC1)c1ccccc1 (stereo not given in full)	inconclusive: 0.0019 µM [cytotoxic, full curve, poor fit]	
CC(C)CC(=O)N[C@H](C(=O)N[C@H](C(=O)N[C@@H](CC(C)C)[C@@H](O)CC(=O)N[C@@H](C)C(=O)N[C@@H](CC(C)C)[C@@H](O)CC(=O)O)C(C)C)C(C)C (Isovaleryl-VV[Sta]A[Sta]-OH)	inconclusive: 1.18 µM [cytotoxic, full curve, poor fit]	
CN1CCN(CCOc2cc(OC3CCOCC3)c3c(Nc4c(Cl)ccc5c4OCO5)ncnc3c2)CC1	active: 2.96 µM	
CCN1C[C@H](C)n2c(c(O)c3c(=O)n(Cc4ccc(F)c(Cl)c4)nc(C(=O)NC)c32)C1=O	inactive	
O=c1ccn([C@@H]2O[C@H](CO)[C@H](O)[C@H]2O)c(=O)[nH]1	inactive	
C[C@]12CCC3c4ccc(O)cc4CCC3C1CCC2=O (stereo not given in full)	inconclusive: 4.18 µM [cytotoxic, full curve, poor fit]	
CC[C@H]1OC(=O)[C@H](C)[C@@H](O[C@H]2C[C@@](C)(OC)[C@@H](O)[C@H](C)O2)[C@H](C)[C@@H](O[C@@H]2O[C@H](C)C[C@H](N(C)C)[C@@H]2O)[C@](C)(O)C[C@@H](C)CN(C)[C@H](C)[C@@H](O)[C@]1(C)O	inconclusive: 0.001 µM [cytotoxic]	
O=c1ccc2ccc(O)c(O)c2o1	inconclusive: 9.35 µM [cytotoxic, full curve, poor fit]	
COc1ccc2c(c1)CC[C@H]1[C@@H]2CC[C@]2(C)[C@@H](NCCCCCCN3C(=O)C=CC3=O)CC[C@H]12	inconclusive: 37.2 µM [cytotoxic, single point]	
CC(C)n1c(C=C[C@H](O)C[C@H](O)CC(=O)O)c(-c2ccc(F)cc2)c2ccccc21	active: 10.5 µM	
CNC1CCC(N(Cc2cccc(-c3ccncc3)c2)C(=O)c2sc3c(F)ccc(F)c3c2Cl)CC1 (stereo not given)	active: 8.33 µM	
OC(CN1CCN(c2cccc(Cl)c2)CC1)C(c1ccccc1)c1ccccc1 (stereo not given)	inconclusive: 26.4 µM [cytotoxic, single point]	
COc1ccc(Nc2nccc(NCCO)n2)cc1	inconclusive: 20.9 µM [cytotoxic, single point]	
O=c1[nH]c(=O)n([C@H]2C[C@@H](O)[C@@H](CO)O2)cc1I	inconclusive: 0.743 µM [cytotoxic, full curve]	
N#Cc1cc(NC(=O)Nc2nnc(-c3ccncc3)s2)ccc1-c1cn[nH]c1	inactive	
CC[C@H]1OC(=O)[C@H](C)[C@@H](O[C@H]2C[C@@](C)(OC)[C@@H](O)[C@H](C)O2)[C@H](C)[C@@H](O[C@@H]2O[C@H](C)C[C@H](N(C)C)[C@H]2O)[C@](C)(O)C[C@H](C)C(=NOCOCCOC)[C@H](C)[C@@H](O)[C@]1(C)O	inconclusive: 0.0264 µM [rising, full curve, poor fit]	
NCCCCCC(=O)O	inconclusive: 33.2 µM [cytotoxic, single point]	
CN[C@@H](C)[C@H]1[C@H](O)C[C@@]2(C)[C@@H]3CC[C@H]4C(C)(C)[C@@H](NC)CC[C@@]45C[C@@]35CC[C@]12C	inactive	
CN(CCOc1ccc(NS(C)(=O)=O)cc1)CCc1ccc(NS(C)(=O)=O)cc1	inactive	
CC(C)(C)C(=O)Oc1ccc2c(c1)nc(NC(=O)c1cccc([N+](=O)[O-])c1)n2CCCO	inconclusive: 0.332 µM [rising, full curve, poor fit]	
